Experiment [1] has as its target RFP-stalk-HC (hagfish). Nature of the experiment: expression in HEK 293-F cells (self-association).
For experiment [2], the target named is RFP-stalk-HC (hagfish). Nature of the experiment: native-PAGE / SDS-PAGE Western blotting (self-association). In general terms: In western blotting, separated proteins are transferred to a membrane and probed.

Results are given in words; binding and its absence hold for the method and conditions named. Some binding calls cover weakened binding; strength is not graded here.

Consider YFPSYIFLHLVHGLAAVPLVYLICHASQLL (peptide, hagfish, not shown: large carriers) [RFP-stalk-HC], for which the binding entry with RFP-stalk-HC (hagfish) [1] and with RFP-stalk-HC (hagfish) [2] was “binds” each time.
